Data as given in PubChem BioAssay AID686938 (Drosophila RNAi Screening Center, 2013).
In all, the deposit lists about 23,000 reagents; this is an unselected part of those with a known target gene and a result. Over the whole deposit, 75 (0.33%) got an active call. 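Raw plate signals without normalisation; calls rest on plate z-scores that were not deposited; ratio present for only 364 wells.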 The numbers tell different reagents against one gene apart. Not given: the dose of the treatment.

Aim: 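Knock-downs reducing store-operated calcium influx in Drosophila cells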 (primary screen)
Cell system: Drosophila S2R+ cells
Reagent: long dsRNA against Drosophila genes, about 0.25 µg dsRNA per well, roughly 10,000 cells
Duration: 5 days of knock-down before the calcium assay
Challenge: thapsigargin (SERCA pump blocker) to empty calcium stores; entry signal taken 4 min after adding it
Detection: 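Duplicate raw fluo-4 intensities per well from a plate reader, at rest and four minutes after thapsigargin emptied calcium stores; entry-to-rest ratio filled for only some wells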
Direction: calcium entry signal: higher = stronger calcium signal after store depletion; resting calcium signal: higher = higher resting calcium signal
Units: calcium entry signal in fluorescence units; resting calcium signal in fluorescence units
Call rule: 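Called when the plate z-score of the entry-to-rest ratio, mean of duplicates, falls below −3; wells with low overall dye signal (Fmax z below −2) or more than five off-targets excluded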
Meaning of the calls: active = strongly reduced calcium entry; inactive = no strong reduction

calcium entry signal, replicate 1	calcium entry signal, replicate 2	resting calcium signal, replicate 1	resting calcium signal, replicate 2	Call	gene	dsRNA no.
3.93e7	4.36e7	1.71e7	1.87e7	inactive	qjt	1
3.43e7	3.52e7	1.64e7	1.73e7	inactive	GATAe	1
4.77e7	3.69e7	2.45e7	1.70e7	inactive	GATAe	2
4.67e7	4.04e7	2.06e7	1.95e7	inactive	CG43146 (retired record)	1
4.26e7	3.56e7	1.95e7	1.90e7	inactive	sls	1
1.86e7	2.58e7	1.12e7	1.31e7	inactive	sls	2
2.98e7	3.31e7	1.42e7	1.51e7	inactive	sls	3
4.86e7	5.30e7	2.34e7	2.49e7	inactive	Mgat3	1
2.63e7	2.81e7	1.36e7	1.35e7	inactive	LysE	1
2.71e7	2.28e7	1.29e7	1.45e7	inactive	Diap2	1
2.99e7	2.99e7	1.51e7	1.29e7	inactive	CG11029	1
3.64e7		1.88e7		inactive	nmd	1
3.64e7	3.75e7	1.73e7	1.77e7	inactive	CG6441	1
4.37e7	5.53e7	2.09e7	2.55e7	inactive	CG31446	1
2.02e7	2.05e7	9.38e6	1.08e7	inactive	CG1575	1
3.37e7	2.71e7	1.69e7	1.39e7	inactive	CG17930	1
4.33e7	5.93e7	2.20e7	2.48e7	inactive	CG32191	1
5.43e7	4.99e7	2.16e7	2.38e7	inactive	Mpcp1	1
3.55e7	4.02e7	2.05e7	2.01e7	inactive	eIF3l	1
2.15e7	1.43e7	1.15e7	7.78e6	inactive	Pdcd4	1
2.53e7	2.24e7	1.31e7	1.13e7	inactive	Ugt35E2	1
4.35e7	5.49e7	2.21e7	2.33e7	inactive	Tdc2	1
1.89e7	3.24e7	1.18e7	1.63e7	inactive	gogo	1
2.46e7	4.54e7	1.22e7	1.79e7	inactive	gogo	2
3.13e7	2.37e7	1.49e7	1.11e7	inactive	trio	1
2.16e7	1.88e7	1.36e7	1.19e7	inactive	trio	2
1.85e7	2.59e7	9.86e6	1.25e7	inactive	trio	3
4.69e7	7.40e7	2.48e7	3.07e7	inactive	CG14546	1
5.72e7	3.57e7	3.25e7	1.49e7	inactive	CG10171	1
4.29e7	4.07e7	2.14e7	1.76e7	inactive	CG9826	1
3.39e7	4.49e7	1.67e7	3.08e7	inactive	CG17027	1
3.94e7	3.92e7	2.02e7	1.87e7	inactive	alpha-Catr	1
3.92e7	4.05e7	1.87e7	7.57e7	inactive	CG10317	1
3.81e7	3.07e7	1.70e7	1.37e7	inactive	CG13999	1
2.87e7	6.56e7	1.47e7	3.38e7	inactive	CG33337	1
3.58e7	3.03e7	1.75e7	1.73e7	inactive	Orai	1
2.10e7	2.73e7	1.64e7	2.06e7	active	Orai	2
4.13e7	3.14e7	1.59e7	1.50e7	inactive	CG5966	1
3.41e7	4.56e7	1.66e7	2.08e7	inactive	sev	1
3.88e7	3.57e7	1.75e7	1.80e7	inactive	Mvd	1
2.91e7	2.75e7	1.46e7	1.34e7	inactive	CG33282	1
5.13e7	5.08e7	2.25e7	2.36e7	inactive	CG10081	1
2.38e7	2.77e7	1.18e7	1.34e7	inactive	CG5886	1
2.39e7	2.77e7	1.26e7	1.36e7	inactive	CG7860	1
3.11e7	4.84e7	1.38e7	1.94e7	inactive	Pde6	1
2.67e7	4.49e7	1.29e7	6.64e7	inactive	Pde6	2
2.49e7	4.41e7	1.42e7	6.42e7	inactive	Pde6	3
1.39e7		8.53e6		inactive	Ssrp	1
5.86e7	5.70e7	2.66e7	2.82e7	inactive	CG42855	1
2.73e7	1.66e7	1.34e7	8.25e6	inactive	CG16965	1
3.43e7	4.09e7	1.56e7	1.71e7	inactive	CG43057	1
3.59e7	4.91e7	1.84e7	2.18e7	inactive	CG4607	1
4.37e7	3.06e7	2.15e7	1.53e7	inactive	CG31360	1
4.24e7	4.43e7	1.85e7	1.98e7	inactive	NO66	1
3.36e7	4.48e7	1.77e7	2.01e7	inactive	CG17883	1
3.80e7	6.06e7	1.68e7	3.11e7	inactive	CG34355	1
4.39e7	5.06e7	2.21e7	2.30e7	inactive	CG34355	2
4.77e7	6.07e7	2.23e7	2.61e7	inactive	CG34355	3
3.83e7	3.66e7	2.10e7	1.66e7	inactive	CG34355	4
